# In PubChem BioAssay AID485314 (National Center for Advancing Translational Sciences (NCATS), 2010):
# Where “and” joins values, the source holds several entries; their conditions need not be identical. Identical values can stand only once. The whole screen tested about 340,000 compounds, of which about 4,500 (1.3%) were called active. Inconclusive means that the source gave no clear call. Such entries were picked first, then a sample of the others. Calls come from the whole dose curve; as a rule, active = well fitted inhibition curve with a large enough effect; inconclusive = small, poorly fitted or top-dose-only effect, or another doubt; inactive = no such curve, though single readings can be large or run the other way. A potency beside an inconclusive call is a rough fit, not a confirmed value.
# Molecular target: DNA polymerase beta (Homo sapiens) (UniProt P06746)
# Experiment: qHTS Assay for Inhibitors of DNA Polymerase Beta
# Details: Pol beta primer extension/strand displacement, fluorescence kinetic; activity change, negative = inhibition: at 114 µM (top of the series)
# Procedure, shortened: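 Human Pol beta at 10 nM; strand-displacement substrate 50 nM final. Compound exposure 15 min at room temperature before start, reaction 10 min at room temperature.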
# % is set by controls: 0 for no effect and ±100 for the full control effect; potency is the fitted concentration of half-maximal effect.
SMILES,Potency,"activity change, negative = inhibition"
Cc1ccccc1-n1nc2c(c1NC(=O)/C=C\c1ccc3c(c1)OCO3)CSC2,"inconclusive: 39.8 µM [inhibitor, partial curve]",
CC(C)(C)N(NS(=O)(=O)c1ccc(F)cc1)c1ccccc1,"inconclusive: 15.8 µM [inhibitor, single point]",
COc1ccccc1CNC(=O)C(=O)NCC1OCCCN1S(=O)(=O)c1cccs1 (stereo not drawn),"inconclusive: 1.78 µM [inhibitor, full curve, poor fit]",
COCCOc1cc(-n2cccc2)c(Cl)cc1Cl,"inconclusive: 3.98 µM [inhibitor, single point]",
Cc1cccc(OCC(=O)NNC(=O)CCCCC(=O)NNC(=O)COc2cccc(C)c2)c1,,inconclusive: -48.1% [inhibitor]
COc1ccccc1C(=O)Nc1cccc(C(=O)OCc2cc(=O)n3c4c(sc3n2)CCCC4)c1,,inactive: -1.15%
Cc1ccc(-n2nc3c(N4CCC(C(=O)NCc5ccccc5C)CC4)nnc(C)c3c2C)cc1,active: 89.1 µM,
Cc1c(CNC(C)CCc2ccccc2)c(C(=O)O)c(C)n1Cc1ccc(F)cc1 (stereo not drawn),,inactive: 17.6%
CCN1CCN(CCNC(=O)c2ccc3c(c2)NC(=O)/C(=C\c2ccc(OC)c(OC)c2)S3)CC1,"inconclusive: 5.01 µM [inhibitor, single point]",
CCOCCCNC(=O)Cn1cnc2c(cnn2-c2ccc(C)c(C)c2)c1=O,"inconclusive: 89.1 µM [inhibitor, single point]",
Cc1cccc(CCNS(=O)(=O)c2ccc3c(c2)NC(=O)C(C)S3)c1 (stereo not drawn),,inactive: 39%
Clc1ccc(COn2c(-c3ccccc3)nc3ccccc32)cc1,"inconclusive: 11.2 µM [inhibitor, single point]",
O=C(NCC1CCCO1)c1cc(-c2ccncc2)nc2ccc(S(=O)(=O)N3CCOCC3)cc12 (stereo not drawn),"inconclusive: 35.5 µM [inhibitor, partial curve]",
COc1ccc(CC(=O)Nc2ccc(-c3nnc(-c4ccccc4)o3)cc2)cc1OC,"inconclusive: 7.08 µM [inhibitor, full curve, poor fit]",
COc1cccc(-c2nc(NCc3cccnc3)c3ccccc3n2)c1O,"inconclusive: 35.5 µM [inhibitor, partial curve, poor fit]",
COC(=O)c1sccc1-c1ccc(C(=O)Nc2cccc(Cl)c2)o1,active: 14.1 µM,
Cc1cc(=O)oc2cc(OCC(=O)NCc3ccco3)ccc12,,inactive: -16.6%
CCc1ccc(NS(=O)(=O)c2ccc3oc(=O)c4ncn(CC)c4c3c2)cc1,,inactive: 0.573%
CCCc1cc(=O)n2c(C(=O)Nc3ccc(OCC)cc3)c(C(=O)Nc3ccc(C)cc3)sc2n1,,inactive: -0.0096%
CC(=O)Nc1ccccc1OC(=O)N1CCOCC1,"inconclusive: 89.1 µM [inhibitor, single point]",
Cc1nn2c(-c3ccc(S(=O)(=O)N4CCN(CCO)CC4)o3)nnc2c2ccccc12,"inconclusive: 89.1 µM [inhibitor, partial curve, poor fit]",
COc1ccc(NC(=O)Nc2ccc3nonc3c2)cc1,"inconclusive: 100 µM [inhibitor, partial curve, poor fit]",

SMILES,Potency,"activity change, negative = inhibition"
Cc1cccc(OCC(=O)Nc2cc(NC(=O)COc3cccc(C)c3C)cc(C(=O)O)c2)c1C,active: 10 µM,
Cc1cc(Cl)ccc1NC(=O)Cn1nc(C)c2c(C)n(-c3ccccc3)nc2c1=O,active: 39.8 µM,
COc1ccc(-c2ocnc2C(=O)N2CCN(Cc3cccnc3)CC2)cc1,"inconclusive: 39.8 µM [inhibitor, single point]",
CCN(c1cccc(C(F)(F)F)c1)S(=O)(=O)c1ccc2c(c1)CCN2C(=O)C1CC1,"inconclusive: 89.1 µM [inhibitor, single point]",
COc1cccc(-n2cc(C(=O)Nc3cccc(C(F)(F)F)c3)c3ccccc3c2=O)c1,,inactive: -48.2%
CCOc1ccc(-c2cc(CCCC(=O)NCCc3ccc(Cl)cc3)no2)cc1,"inconclusive: 100 µM [inhibitor, single point]",
Cc1nc(Nc2ccncc2)c2oc3ccccc3c2n1,"inconclusive: 3.16 µM [inhibitor, partial curve, poor fit]",
NC(CO)(CO)COCc1ccccc1,"inconclusive: 89.1 µM [inhibitor, single point]",
O=C(c1cnn2c1NC(c1ccc(Br)cc1)CC2C(F)(F)F)N1CCN(C23CC4CC(CC(C4)C2)C3)CC1 (stereo not drawn),"inconclusive: 3.16 µM [inhibitor, full curve, poor fit]",
O=[N+]([O-])c1ccc(O)c(C=Nc2ccc3nc(-c4ccccc4)[nH]c3c2)c1,active: 28.2 µM,
CC(=O)Nc1ccc(NC(=O)C(OC(=O)c2ccccc2)C(OC(=O)c2ccccc2)C(=O)O)cc1 (stereo not drawn),,inactive: -21.7%
CCCNC(=O)C1=CC(c2ccc3c(c2)OCO3)=NS(=O)(=O)N1C,,inactive: 24.1%
Cc1ccc(NC(=O)CN2C(=O)N/C(=C\c3cccn3-c3cccc(C(=O)O)c3)C2=O)cc1,active: 3.98 µM,
Cc1ccc(C(=O)N2CCc3cc(CNC(=O)CSc4ccccc4)ccc32)cc1,,inactive: -13.9%
CC(/C=C/c1ccco1)=N\NC(=O)CNc1ccc2ccccc2c1,"inconclusive: 25.1 µM [inhibitor, full curve, poor fit]",
O=C(CSc1nnc2ccc(-c3ccncc3)nn12)c1cccs1,"inconclusive: 44.7 µM [inhibitor, partial curve]",
CN(C)c1ncnc2sc(-c3ccccc3)cc12,"inconclusive: 0.708 µM [inhibitor, full curve, poor fit]",
C=CCOc1ccc(-c2n[nH]c(=S)o2)cc1,,inactive: 27.1%
Cc1ccc(-c2[nH]c3c(c2-c2c(-n4cccc4)n(C)c(=O)[nH]c2=O)c(=O)[nH]c(=O)n3C)cc1,,inactive: -0.618%
CC(C)(C)OC(=O)N1CCC[C@H]1c1nnc(SCC(=O)Nc2cccc(Cl)c2)o1,"inconclusive: 100 µM [inhibitor, single point]",
Nc1ccc(O)c(-c2nc3ccccc3s2)c1,active: 7.94 µM,
CSCc1ccc(C(=O)NC(C)c2ccc(-n3ccnc3)cc2)cc1 (stereo not drawn),,inconclusive: -44% [inhibitor]
COc1ccccc1OCC(=O)Nc1ccc(S(=O)(=O)N(C)c2ccccc2)cc1,"inconclusive: 3.55 µM [inhibitor, full curve, poor fit]",

SMILES,Potency,"activity change, negative = inhibition"
O=C(CN1C(=O)COc2ccc(S(=O)(=O)N3CCCCCC3)cc21)Nc1cccc(Cl)c1,,inactive: -0.296%
Cn1c(CNC(=O)OC(C)(C)C)nnc1SCc1c(Cl)cccc1Cl,"inconclusive: 7.94 µM [inhibitor, full curve, poor fit]",
Cc1ccc(S(=O)(=O)/N=C2/NC(=O)/C(=C/c3cccnc3)S2)cc1,"inconclusive: 12.6 µM [inhibitor, partial curve, poor fit]",
CC(/C=N/NC(=O)c1cccc(F)c1)=C\c1ccccc1,active: 17.8 µM,
O=C(Cc1ccc(F)cc1)NC1CCSC1=O (stereo not drawn),"inconclusive: 56.2 µM [inhibitor, partial curve, poor fit]",
O=C(CCc1ccccc1)N=C1SC2CS(=O)(=O)CC2N1c1ccccc1F (stereo not drawn),"inconclusive: 14.1 µM [inhibitor, single point]",
CCc1cc2c(C)ccc(C)c2nc1SCC(=O)Nc1c[nH]c(=O)[nH]c1=O,"inconclusive: 1.41 µM [inhibitor, full curve, poor fit]",
COc1ccccc1/C=C/C=N/NC(=O)c1ccc2nc[nH]c2c1,active: 35.5 µM,
COc1ccc(CN=C2NC(=O)CC(C(=O)Nc3ccc(F)cc3)S2)cc1 (stereo not drawn),,inactive: -9.67% [at 57.1 µM]
CC1(NC(=O)CC[N+](C)(C)CCO)CS(=O)(=O)CC1S(=O)(=O)[O-] (stereo not drawn),active: 2 µM,
N#Cc1c(N)sc(=S)c2c1CCCCC2,active: 12.6 µM,
CC(C)(C)c1ccc(/C=N/NC(=O)Cc2c[nH]c3ccccc23)cc1,"inconclusive: 50.1 µM [inhibitor, partial curve]",
COc1ccc(NC(=S)Nc2cc(-c3ccccc3)[nH]n2)cc1Cl,"inconclusive: 89.1 µM [inhibitor, single point]",
CC(=O)C1=C(C)NC(=O)NC1c1cc(Br)ccc1OCC(N)=O (stereo not drawn),"inconclusive: 89.1 µM [inhibitor, single point]",
Cc1nc2scc(C)n2c(=O)c1S(=O)(=O)Nc1ccc(N2CCN(S(C)(=O)=O)CC2)cc1,"inconclusive: 39.8 µM [inhibitor, single point] and inconclusive: 89.1 µM [inhibitor, single point]",
CCCn1c2ccccc2c2cnn(CC(=O)NCC3CCN(Cc4ccc(F)cc4)CC3)c(=O)c21,,inactive: -1.2%
Cc1cc(=O)oc2cc(OCC(=O)Nc3ccc(S(=O)(=O)N(C)C)cc3)ccc12,"inconclusive: 89.1 µM [inhibitor, single point]",
CN(Cc1cnc2nc(N)nc(N)c2n1)c1ccc(C(=O)N[C@@H](CCC(=O)O)C(=O)O)cc1,active: 39.8 µM,
Cc1ccc(/C=C2\SC(=S)N(CCC(=O)NNS(=O)(=O)c3ccc(C)cc3)C2=O)cc1,"inconclusive: 89.1 µM [inhibitor, single point]",
CCC(C)NC(=O)C1CCC(=O)N1CCc1ccccc1 (stereo not drawn),,inactive: 30.9%
Cn1nc(-c2ccccn2)nc2c(=O)n(C)c(=O)nc1-2,"inconclusive: 1.12 µM [inhibitor, full curve, poor fit]",
